Data reported in EP4814011A1 (Shanghai Huaota Biopharmaceutical Co., Ltd., dated 2026).
Changes are numbered by the printed parent chain. Names may count otherwise. These are yes or no findings as the source states them, for the method shown. Some results given as binding are weak or reduced against the parent protein; the word gives no strength.

By UniProt entry, the sequences of proteins in these tests, tags left out. Residues count along the entry.
UniProt Q969D9, residues 29-159: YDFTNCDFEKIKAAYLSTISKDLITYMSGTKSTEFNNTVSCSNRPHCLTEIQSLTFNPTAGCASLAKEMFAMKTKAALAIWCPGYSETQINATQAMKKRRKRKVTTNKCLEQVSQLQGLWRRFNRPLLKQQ

B1: 900792-huH2L2 (antibody, human IgG1, kappa, L234A L235A, V domains shown)
VH: QVQLVQSGAEVKKPGASVKVSCKASGYAFTNYLIEWVRQAPGQGLEWMGIINPESGDTYYAQKFQGRVTMTADKSTSTAYMELSSLRSEDSAVYFCAKESLTGSSYDYWGQGTTLTVSS
VL: DIQMTQSPSSLSASVGDRVTITCRASENIYSNLVWYQQKPGKAPQLLVYGARNLQSGVPSRFSGSGSGTQFSLTISSLQPEDFATYYCQHFYETPLTFGTGTKLEIKR
notes: Humanized
B2: 900792-huH1L2 (antibody, human IgG1, kappa, L234A L235A, V domains shown)
VH: B1 VH with V5Q, M48I, I50V, A61S, Q62E, M70L
VL: B1 VL
notes: Humanized
B3: 900792-huH4L2 (antibody, human IgG1, kappa, L234A L235A, V domains shown)
VH: B1 VH with M70L, F95Y
VL: B1 VL
notes: Humanized
B4: 900792-huH3L3 (antibody, human IgG1, kappa, L234A L235A, V domains shown)
VH: B1 VH with V5Q, I50V, A61S
VL: B1 VL with V48I, S72T
notes: Humanized
B5: 900792-huH4L1 (antibody, human IgG1, kappa, L234A L235A, V domains shown)
VH: B1 VH with M70L, F95Y
VL: B1 VL with Q55A, S56D
notes: Humanized
B6: 900792-huH2L1 (antibody, human IgG1, kappa, L234A L235A, V domains shown)
VH: B1 VH
VL: B1 VL with Q55A, S56D
notes: Humanized
B7: 900792-huH3L2 (antibody, human IgG1, kappa, L234A L235A, V domains shown)
VH: B1 VH with V5Q, I50V, A61S
VL: B1 VL
notes: Humanized
B8: 900792-huH1L3 (antibody, human IgG1, kappa, L234A L235A, V domains shown)
VH: B1 VH with V5Q, M48I, I50V, A61S, Q62E, M70L
VL: B1 VL with V48I, S72T
notes: Humanized
B9: 900792-huH4L3 (antibody, human IgG1, kappa, L234A L235A, V domains shown)
VH: B1 VH with M70L, F95Y
VL: B1 VL with V48I, S72T
notes: Humanized
B10: 900792-huH1L1 (antibody, human IgG1, kappa, L234A L235A, V domains shown)
VH: B1 VH with V5Q, M48I, I50V, A61S, Q62E, M70L
VL: B1 VL with Q55A, S56D
notes: Humanized
B11: 900792-huH2L3 (antibody, human IgG1, kappa, L234A L235A, V domains shown)
VH: B1 VH
VL: B1 VL with V48I, S72T
notes: Humanized
B12: 900792-huH3L1 (antibody, human IgG1, kappa, L234A L235A, V domains shown)
VH: B1 VH with V5Q, I50V, A61S
VL: B1 VL with Q55A, S56D
notes: Humanized
B13: 900792 chimera (antibody, human IgG1, kappa, L234A L235A, V domains shown)
VH: QVQLQQSGAELVRPGTSVKVSCKASGYAFTNYLIEWVKQRPGQGLEWIGVINPESGDTYYSEKFKGKATLTADKSSSTAYMQLSSLTSEDSAVYFCAKESLTGSSYDYWGQGTTLTVSS
VL: DIQMTQSPASLSASVGESVTITCRASENIYSNLVWYQQKQGKSPQLLVYGARNLADGVPSRFSGSGSGTQFSLKINSLQPEDFGNYYCQHFYETPLTFGTGTKLEIKR
notes: Human-mouse chimera of clone 77E6; human IgG1 constant region with L234A and L235A (Eu), human kappa

target: human TSLP with His tag (ACRO, TSP-H52Ha) (human) (UniProt Q969D9); test: SPR

| binding | Binder |
| --- | --- |
| binds | B1 |
| binds | B2 |
| binds | B3 |
| binds | B4 |
| binds | B5 |
| binds | B6 |
| binds | B7 |
| binds | B8 |
| binds | B9 |
| binds | B10 |
| binds | B11 |
| binds | B12 |

target: human TSLP on human TSLP-expressing cells (Baf3-hu-TSLP-3G11, Huabo Biopharm) (human) (UniProt Q969D9); test: flow cytometry on Baf3-hu-TSLP-3G11 cells

| binding | Binder |
| --- | --- |
| binds | B13 |
| binds | B1 |
| binds | B2 |
| binds | B3 |
| binds | B4 |
| binds | B5 |
| binds | B6 |
| binds | B7 |
| binds | B8 |
| binds | B9 |
| binds | B10 |
| binds | B11 |
| binds | B12 |
